System: 5-HT7 receptor in the dog coronary artery
Test: antagonism of 5-HT-induced relaxation in endothelium-denuded canine coronary artery rings precontracted with PGF2α
Format: cell-based, mongrel dogs
Settings: rings precontracted with PGF2α (10µM)
Method: Hearts were obtained from mongrel dogs anesthetized with sodium pentobarbital (30mg/kg, i.v.) and placed in oxygenated modified Krebs' solution of the following composition (millimolar): NaCl, 118; KCl, 4.6; CaCl2, 1.6; KH2PO4, 1.2; MgSO4 1.2, glucose, 10; NaHCO3 24.8 (pH 7.4). The left anterior descending and circumflex coronary arteries were dissected from the hearts, cleaned of fat and adhering tissue and cut into rings (approximately 2-3mm outer diameter and 4-5mm in length). The intimal surface of the rings was gently rubbed with a pair of forceps to remove the endothelium. […] Tissues were equilibrated for 1 hour under an initial optimal passive force of 4g determined previously from length-tension experiments. […] Isometric force was measured with Statham UC3 force transducers connected to a Beckman dynograph (R611). […]
Tissues prepared as described in Example 1 were precontracted with PGF2α (10µM) which produced a tonic contraction that remained at or above 92.8±2.1% (n=14) of the original maximum force throughout the experiment. […] In some experiments contraction was measured in tissues under basal tone upcn the cumulative addition of 5-HT. […]
All results are expressed as mean ± S.E. where "n" represents the number of rings examined. […] The relaxation data is expressed as percent relaxation of the contraction produced by PGF2α . […]

Structure (SMILES)	(slope) of the Schild regression
CC(O)C(C)OC(=O)C1CC2c3cccc4c3c(cn4C(C)C)CC2N(C)C1 (centres unmarked) [COMPOUND II]	0.92
CC(C)n1cc2c3c(cccc31)C1CC(C(=O)NC3CCCC3O)CN(C)C1C2 (centres unmarked) [COMPOUND IV]	0.98

Reference: patent EP0738513A1, “Method for using ergoline compounds to effect physiological and pathological functions at the 5-HT7 receptor” (ELI LILLY AND COMPANY, priority 1995, dated 1996)
